PfKRS1: 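Enzyme assay of the cytosolic lysyl-tRNA synthetase in 384-well plates, read by luminescence. Target: Lysine-tRNA ligase, Plasmodium falciparum 3D7 (UniProt Q8IDJ8). Concentration: 30 µM. Direction is inferred from only a few compounds that gave an IC50; most scored high, so higher reads as stronger inhibition. Of about 69,000 compounds tested this way, about 49 (0.071%) reached 50% or more in at least one test.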
LiHisRS: 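Enzyme assay of histidyl-tRNA synthetase; the read-out is not stated. Target: Histidine-tRNA ligase, Leishmania infantum (UniProt A4I591). Tested at 30 µM. The record gives no direction; compounds that gave an IC50 in retests scored well above the rest, so higher reads as stronger inhibition. The assay is labelled LdHisRS but filed under L. infantum. About 69,000 compounds were tested under these conditions; 0.6% (about 410) showed 50% or more at least once.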
TcHisRS: 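Histidine-tRNA ligase, Trypanosoma cruzi CL Brener (UniProt Q4DA54). Enzyme assay of histidyl-tRNA synthetase; the read-out is not stated. Tested at 30 µM. Direction is inferred from retests: higher values go with stronger inhibition. Size under these conditions: about 69,000 compounds, about 31 of them at 50% or above in at least one test.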
Leishmania in macrophages: 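Cell assay of Leishmania donovani living inside macrophages; the read-out is not stated. Compounds at 30 µM. Direction is inferred from retests: higher values go with stronger inhibition. Of about 69,000 compounds tested this way, about 1,000 (1.5%) reached 50% or more in at least one test.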
ClpP1P2: 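ClpP1P2, Mycobacterium tuberculosis (UniProt P9WPC5 and UniProt P9WPC3). Protease assay of ClpP1P2, read by the AMC dye that it sets free. Concentration: 50 µM. Direction is inferred from only a few compounds that gave an IC50; most scored high, so higher reads as stronger inhibition. Most other retested compounds had strongly negative values. Of about 69,000 compounds tested this way, about 10 (0.015%) reached 50% or more in at least one test.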

By UniProt entry, the sequences of proteins in these tests, tags left out. Residues count along the entry.
UniProt Q8IDJ8, 1-583: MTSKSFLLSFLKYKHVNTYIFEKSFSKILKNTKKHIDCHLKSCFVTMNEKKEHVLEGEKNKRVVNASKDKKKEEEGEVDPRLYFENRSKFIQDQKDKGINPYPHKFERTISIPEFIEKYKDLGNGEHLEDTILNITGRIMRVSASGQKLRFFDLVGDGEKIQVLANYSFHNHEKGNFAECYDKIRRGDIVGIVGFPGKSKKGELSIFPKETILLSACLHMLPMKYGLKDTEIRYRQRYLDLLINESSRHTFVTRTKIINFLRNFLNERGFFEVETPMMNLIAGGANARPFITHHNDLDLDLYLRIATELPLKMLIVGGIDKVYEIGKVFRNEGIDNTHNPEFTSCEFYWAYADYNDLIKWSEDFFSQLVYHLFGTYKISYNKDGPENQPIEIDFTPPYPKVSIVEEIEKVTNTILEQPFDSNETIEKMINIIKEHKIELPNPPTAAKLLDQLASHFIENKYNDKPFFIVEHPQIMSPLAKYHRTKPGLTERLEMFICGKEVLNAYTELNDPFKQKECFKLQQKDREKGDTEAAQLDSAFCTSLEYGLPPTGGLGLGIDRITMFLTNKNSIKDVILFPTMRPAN
UniProt A4I591, 1-473: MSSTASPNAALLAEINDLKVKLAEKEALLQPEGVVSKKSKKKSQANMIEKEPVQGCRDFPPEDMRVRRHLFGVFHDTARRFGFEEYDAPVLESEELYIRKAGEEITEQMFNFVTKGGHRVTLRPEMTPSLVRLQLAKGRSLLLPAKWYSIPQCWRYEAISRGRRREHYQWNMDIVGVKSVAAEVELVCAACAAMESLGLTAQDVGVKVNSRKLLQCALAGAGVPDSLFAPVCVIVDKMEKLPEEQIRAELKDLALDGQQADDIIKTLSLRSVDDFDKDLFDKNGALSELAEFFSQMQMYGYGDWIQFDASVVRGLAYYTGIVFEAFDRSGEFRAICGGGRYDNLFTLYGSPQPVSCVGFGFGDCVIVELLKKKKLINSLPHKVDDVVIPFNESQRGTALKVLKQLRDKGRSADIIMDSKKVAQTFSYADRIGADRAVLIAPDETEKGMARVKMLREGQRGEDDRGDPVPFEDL
UniProt Q4DA54, 1-478: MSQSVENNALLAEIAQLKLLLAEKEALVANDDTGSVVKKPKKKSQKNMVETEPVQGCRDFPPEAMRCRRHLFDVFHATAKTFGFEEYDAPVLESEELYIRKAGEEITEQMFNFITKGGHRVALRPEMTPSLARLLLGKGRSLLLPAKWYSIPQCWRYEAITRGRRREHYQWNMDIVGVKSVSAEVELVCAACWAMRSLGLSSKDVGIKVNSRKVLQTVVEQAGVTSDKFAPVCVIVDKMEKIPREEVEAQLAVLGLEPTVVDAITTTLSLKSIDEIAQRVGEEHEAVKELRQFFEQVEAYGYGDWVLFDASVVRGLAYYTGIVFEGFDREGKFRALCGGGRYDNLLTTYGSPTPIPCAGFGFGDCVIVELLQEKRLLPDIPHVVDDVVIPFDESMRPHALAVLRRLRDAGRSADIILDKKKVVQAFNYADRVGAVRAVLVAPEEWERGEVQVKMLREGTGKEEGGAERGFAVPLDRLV
UniProt P9WPC5, whole entry: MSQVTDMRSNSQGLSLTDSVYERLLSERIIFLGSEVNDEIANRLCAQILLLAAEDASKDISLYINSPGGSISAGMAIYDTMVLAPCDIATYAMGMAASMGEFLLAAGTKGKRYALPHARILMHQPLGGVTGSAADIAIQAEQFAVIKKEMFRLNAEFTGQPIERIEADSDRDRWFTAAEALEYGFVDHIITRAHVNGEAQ
UniProt P9WPC3, whole entry partner: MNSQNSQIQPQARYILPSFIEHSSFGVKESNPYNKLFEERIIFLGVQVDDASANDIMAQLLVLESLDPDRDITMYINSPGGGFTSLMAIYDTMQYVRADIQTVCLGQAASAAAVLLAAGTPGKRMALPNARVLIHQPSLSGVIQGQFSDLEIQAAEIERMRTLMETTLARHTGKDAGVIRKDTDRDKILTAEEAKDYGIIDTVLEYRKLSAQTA

Values are the deposited “Percent Effect”, in %. The controls that fix the scale are not given in the record; negative values are as filed. The compounds are a random part of those screened. Two or more numbers in one place are separate tests of the same structure; such repeats can differ widely. A dash means the value is not listed here; it may have been measured.

For CCN(CC)c1ncnc2c1CCN(C(=O)Cc1ccccn1)CC2 the result was PfKRS1: 2.095%; LiHisRS: 15.38%; TcHisRS: 4.878%; ClpP1P2: -13.08%.
For CNC(=O)CN1CCOC(c2cccc(N)n2)C1 (stereo not drawn) the result was PfKRS1: 2.092%; LiHisRS: 12.68%; TcHisRS: 8.462%; Leishmania in macrophages: 18.21%; ClpP1P2: -8.725%.
For CCNC(=O)[C@@H]1C[C@@H](n2cc(CN(CC)CC)nn2)CN1 the result was PfKRS1: 8.431%; LiHisRS: 1.042%; TcHisRS: 0%; Leishmania in macrophages: 23.07%; ClpP1P2: 0.2597%.
For C1=C(c2c[nH]c3ncccc23)CCN(Cc2nnc(C3CC3)o2)C1 the result was PfKRS1: 4.322%; LiHisRS: 16.07%; TcHisRS: 2.632%; Leishmania in macrophages: -25.18%; ClpP1P2: -17.6%.
For O=C(O)C(F)(F)F.O=C1CC2(CCN(CC3CC3)C2)CN1c1cccc(F)c1 (stereo not drawn) the result was Leishmania in macrophages: 27.98%.
For CCc1nc(C)c(C(=O)N2C[C@H]3CC[C@@H]2CN(S(=O)(=O)N(C)C)C3)s1 the result was PfKRS1: 2.113%; LiHisRS: 0.9709%; TcHisRS: 2.905%; ClpP1P2: 1.743%.
For O=C1CN(S(=O)(=O)CC(F)(F)F)CC(O)CN1CCCc1ccccc1 (stereo not drawn) the result was PfKRS1: 4.044%; LiHisRS: 20.62%; TcHisRS: 4.624%; Leishmania in macrophages: 11.39%; ClpP1P2: -0.2189%.
For NC(=O)C1CCN(c2ncc(-c3cnccn3)c([C@H]3CCCO3)n2)CC1 the result was PfKRS1: 1.225%; LiHisRS: 0%; TcHisRS: -0.7491%; Leishmania in macrophages: -2.249%; ClpP1P2: -1.797%.
For CCC[C@H]1CN(CCOC)C[C@@H]1NC(=O)Cn1cc(C)cn1 the result was PfKRS1: 6.738%; LiHisRS: 13.11%; TcHisRS: -2.02%; Leishmania in macrophages: 6.321%; ClpP1P2: 2.985%.
For Cc1cccc(=O)n1CCC(=O)N(C)Cc1cccc2ncccc12 the result was PfKRS1: 5.561%; LiHisRS: 5.128%; TcHisRS: 3.784%; Leishmania in macrophages: 2.495%; ClpP1P2: -8.233%.
For CC(c1ccc2c(c1)OCCO2)N(C)C(=O)c1ccnnc1 (stereo not drawn) the result was PfKRS1: 0.6021%; LiHisRS: 4.839%; TcHisRS: 7.018%; Leishmania in macrophages: -17.87%; ClpP1P2: -4.766%.
For CC(C)c1nccn1CCC(=O)NCC(C)(O)c1ccco1 (stereo not drawn) the result was PfKRS1: -2.335%; LiHisRS: 4.167%; TcHisRS: 7.182%; Leishmania in macrophages: -9.306%; ClpP1P2: -4.308%.
For CN1CC(=O)N(c2ccsc2)CC12CCN(C(=O)N1CCCC1)C2.O=C(O)C(F)(F)F (stereo not drawn) the result was Leishmania in macrophages: 25.81%.
For COc1cccc(N2CCC(CNc3cc(C)nc4ncnn34)C2)c1 (stereo not drawn) the result was PfKRS1: 5.676%; LiHisRS: 32.88%; TcHisRS: 1.587%; Leishmania in macrophages: -70.29%; ClpP1P2: 0.03325%.
For COc1cccc(C2CCN2C(=O)c2cc(C(C)C)on2)c1 (stereo not drawn) the result was PfKRS1: 5.192%; LiHisRS: 16%; TcHisRS: 0.5435%; Leishmania in macrophages: 6.046%; ClpP1P2: -0.6336%.
For CC1CN(CC(=O)NCc2ccccn2)CCN1Cc1nccn1C (stereo not drawn) the result was PfKRS1: 1.301%; LiHisRS: 14.68%; TcHisRS: 9.038%; Leishmania in macrophages: 16.57%; ClpP1P2: -71.29%.
For O=C(C1CC1)N1CCC(C(=O)N2CCC(c3ccc(F)cc3)C2)CC1 (stereo not drawn) the result was PfKRS1: 0.3625%; LiHisRS: -5.263%; TcHisRS: 8.38%; Leishmania in macrophages: -11.45%; ClpP1P2: -1.49%.
For Cc1cnn(C2CCCN(C(=O)c3ccc(Cn4ccnc4)cc3)C2)c1 (stereo not drawn) the result was PfKRS1: -1.584%; LiHisRS: -36.84%; TcHisRS: 2.006%; Leishmania in macrophages: -7.331%; ClpP1P2: 12.14%.
For CCOCC1CN(C(=O)Cc2ccccn2)Cc2c1cnn2C.O=C(O)C(F)(F)F.O=C(O)C(F)(F)F (stereo not drawn) the result was Leishmania in macrophages: 33.41%.
For CC1=Nc2c(c(=O)[nH]n2C(C)C)C(c2ccsc2)S1 (stereo not drawn) the result was PfKRS1: 4.902% and 5.067%; LiHisRS: 20.69% and 39.47%; TcHisRS: 23.08% and 25.15%; Leishmania in macrophages: 23.12% and -6.33%; ClpP1P2: -4.315% and -2.514%.

Repeated from the top, 2 entries:

SMILES,PfKRS1,LiHisRS,TcHisRS,Leishmania in macrophages,ClpP1P2
CCN(CC)c1ncnc2c1CCN(C(=O)Cc1ccccn1)CC2,2.095,15.38,4.878,-,-13.08
CNC(=O)CN1CCOC(c2cccc(N)n2)C1 (stereo not drawn),2.092,12.68,8.462,18.21,-8.725

Data taken from ChEMBL document CHEMBL3988442, “University of Dundee, Small-Polar-MMV Screening Library” (2021).